Consider 1 molecule from publication PMC4901263.

No constants are given. Whether binding was seen depends on the method and setting. Binding seen in cells or lysates may run through a third protein. For part of these data: A result given as binding can be weak or reduced; the word gives no strength. Sequences can lack the tags named with a protein.

Common to all, as to test: co-IP; HEK293T cells co-transfected with tagged CIDEB and a tagged HCV protein; lysis buffer 50 mM Tris pH 7.4, 150 mM NaCl, 0.5% NP-40, 1.0 mM EDTA; IP with anti-Flag, anti-HA or anti-GFP antibody and protein A/G beads at 4 °C; blot with anti-HA, anti-Flag or anti-NS3
Test [1] has as its target HA-NS5A-∆(DII + DIII) (hepatitis C virus (strain not stated)).
Test [2] addresses HA-NS5A-∆DI (hepatitis C virus (strain not stated)).
Test [3] addresses HA-NS5A-∆DIII (hepatitis C virus (strain not stated)).

B1: Flag-CIDEB (in HEK293T cells) (protein, UniProt Q9UHD4 1-219)
chain: MEYLSALNPSDLLRSVSNISSEFGRRVWTSAPPPQRPFRVCDHKRTIRKGLTAATRQELLAKALETLLLNGVLTLVLEEDGTAVDSEDFFQLLEDDTCLMVLQSGQSWSPTRSGVLSYGLGRERPKHSKDIARFTFDVYKQNPRDLFGSLNVKATFYGLYSMSCDFQGLGPKKVLRELLRWTSTLLQGLGHMLLGISSTLRHAVEGAEQWQQKGRLHSY
With B1, the binding result in test [1] is “binds”; in test [2], “no binding”; in test [3], “binds”.
